From the supplement of paper PMC6411743
± gives the standard deviation of the averaged measurements. The list shows a part of the results, in another mix than the full data.

Protein sequences, listed by entry. Tags and fused reporters are not part of them. Lines headed by an entry give the natural chain unless they say otherwise; changes in a name come on top.
UniProt P54284, whole entry: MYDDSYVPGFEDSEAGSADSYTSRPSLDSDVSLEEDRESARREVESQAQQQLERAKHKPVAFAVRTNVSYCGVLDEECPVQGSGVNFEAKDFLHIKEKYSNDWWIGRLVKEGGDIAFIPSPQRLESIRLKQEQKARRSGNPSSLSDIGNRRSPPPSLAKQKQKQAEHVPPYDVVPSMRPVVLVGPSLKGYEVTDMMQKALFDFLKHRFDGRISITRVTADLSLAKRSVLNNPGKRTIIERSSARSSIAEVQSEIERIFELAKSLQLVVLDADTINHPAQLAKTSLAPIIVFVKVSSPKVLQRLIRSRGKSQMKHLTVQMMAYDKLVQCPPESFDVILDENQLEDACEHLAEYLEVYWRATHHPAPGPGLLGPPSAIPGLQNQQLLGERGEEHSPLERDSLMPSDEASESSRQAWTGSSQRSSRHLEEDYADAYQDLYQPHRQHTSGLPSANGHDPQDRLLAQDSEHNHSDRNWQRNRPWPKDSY
UniProt P60660, whole entry: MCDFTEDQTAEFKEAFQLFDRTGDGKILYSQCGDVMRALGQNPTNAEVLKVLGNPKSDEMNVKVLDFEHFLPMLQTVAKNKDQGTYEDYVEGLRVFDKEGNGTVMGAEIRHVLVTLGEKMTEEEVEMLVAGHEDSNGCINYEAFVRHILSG
UniProt O43674, whole entry: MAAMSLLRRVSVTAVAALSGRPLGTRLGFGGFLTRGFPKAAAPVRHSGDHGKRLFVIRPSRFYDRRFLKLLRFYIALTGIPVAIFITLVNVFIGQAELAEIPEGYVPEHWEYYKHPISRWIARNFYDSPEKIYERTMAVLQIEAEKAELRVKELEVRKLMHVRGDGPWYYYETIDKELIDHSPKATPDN
UniProt Q92994: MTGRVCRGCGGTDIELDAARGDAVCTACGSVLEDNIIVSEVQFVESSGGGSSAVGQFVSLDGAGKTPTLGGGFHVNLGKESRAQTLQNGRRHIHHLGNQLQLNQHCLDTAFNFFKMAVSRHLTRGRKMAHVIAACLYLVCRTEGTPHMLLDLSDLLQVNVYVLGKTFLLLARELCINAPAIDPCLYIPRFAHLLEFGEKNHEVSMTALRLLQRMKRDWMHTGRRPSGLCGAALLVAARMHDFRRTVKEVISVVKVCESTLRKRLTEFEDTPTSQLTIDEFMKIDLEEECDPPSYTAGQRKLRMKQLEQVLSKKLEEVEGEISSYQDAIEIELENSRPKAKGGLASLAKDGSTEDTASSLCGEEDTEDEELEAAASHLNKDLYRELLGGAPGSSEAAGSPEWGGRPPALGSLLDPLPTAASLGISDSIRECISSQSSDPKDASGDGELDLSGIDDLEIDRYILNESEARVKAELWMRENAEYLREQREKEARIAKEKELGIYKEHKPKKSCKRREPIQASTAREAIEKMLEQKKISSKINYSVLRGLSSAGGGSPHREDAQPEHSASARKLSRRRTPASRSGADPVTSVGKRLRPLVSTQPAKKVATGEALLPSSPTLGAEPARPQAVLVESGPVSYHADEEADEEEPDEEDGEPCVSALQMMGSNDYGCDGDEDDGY
UniProt P08962, whole entry: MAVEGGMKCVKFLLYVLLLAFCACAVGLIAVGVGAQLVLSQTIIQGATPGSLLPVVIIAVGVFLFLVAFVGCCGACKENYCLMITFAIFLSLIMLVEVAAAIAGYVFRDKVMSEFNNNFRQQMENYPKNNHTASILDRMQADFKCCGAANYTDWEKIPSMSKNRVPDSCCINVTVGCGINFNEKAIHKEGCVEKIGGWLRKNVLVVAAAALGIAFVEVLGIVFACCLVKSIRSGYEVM
UniProt P49959: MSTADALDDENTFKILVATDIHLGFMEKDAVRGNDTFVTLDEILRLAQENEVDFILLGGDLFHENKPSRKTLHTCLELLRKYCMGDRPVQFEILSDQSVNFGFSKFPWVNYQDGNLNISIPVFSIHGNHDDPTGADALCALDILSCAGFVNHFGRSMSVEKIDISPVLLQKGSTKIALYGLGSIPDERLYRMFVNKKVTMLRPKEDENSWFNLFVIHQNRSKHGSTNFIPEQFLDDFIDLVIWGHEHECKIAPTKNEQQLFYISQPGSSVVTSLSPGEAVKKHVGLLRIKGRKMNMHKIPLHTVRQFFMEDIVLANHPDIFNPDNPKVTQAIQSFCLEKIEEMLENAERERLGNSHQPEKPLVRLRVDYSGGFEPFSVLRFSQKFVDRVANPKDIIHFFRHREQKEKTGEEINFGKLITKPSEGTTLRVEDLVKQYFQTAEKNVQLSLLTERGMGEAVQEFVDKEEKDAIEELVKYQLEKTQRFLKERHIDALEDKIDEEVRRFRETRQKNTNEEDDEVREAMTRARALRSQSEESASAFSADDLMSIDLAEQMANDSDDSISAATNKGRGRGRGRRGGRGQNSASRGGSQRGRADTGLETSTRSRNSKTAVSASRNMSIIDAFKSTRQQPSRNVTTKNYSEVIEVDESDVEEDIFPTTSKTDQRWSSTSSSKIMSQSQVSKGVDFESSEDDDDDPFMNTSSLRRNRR
UniProt P15586: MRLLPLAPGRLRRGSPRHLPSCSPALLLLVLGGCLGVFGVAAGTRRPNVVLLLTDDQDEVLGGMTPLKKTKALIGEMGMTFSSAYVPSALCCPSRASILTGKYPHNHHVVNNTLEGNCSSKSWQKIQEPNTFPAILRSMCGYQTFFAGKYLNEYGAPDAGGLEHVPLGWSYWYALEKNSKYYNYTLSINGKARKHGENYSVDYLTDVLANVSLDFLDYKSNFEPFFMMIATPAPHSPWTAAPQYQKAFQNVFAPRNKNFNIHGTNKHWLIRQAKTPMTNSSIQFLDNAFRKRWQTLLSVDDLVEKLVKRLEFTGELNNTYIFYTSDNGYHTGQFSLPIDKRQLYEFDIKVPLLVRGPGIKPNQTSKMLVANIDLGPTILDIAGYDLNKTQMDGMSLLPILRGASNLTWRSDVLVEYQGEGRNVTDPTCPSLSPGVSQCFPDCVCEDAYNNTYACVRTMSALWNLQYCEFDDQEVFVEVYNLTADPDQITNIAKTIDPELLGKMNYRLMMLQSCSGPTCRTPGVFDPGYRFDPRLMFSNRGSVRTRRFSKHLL
UniProt Q8N4H5: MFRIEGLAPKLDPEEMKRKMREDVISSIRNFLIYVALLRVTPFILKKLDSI
UniProt Q9HAW4: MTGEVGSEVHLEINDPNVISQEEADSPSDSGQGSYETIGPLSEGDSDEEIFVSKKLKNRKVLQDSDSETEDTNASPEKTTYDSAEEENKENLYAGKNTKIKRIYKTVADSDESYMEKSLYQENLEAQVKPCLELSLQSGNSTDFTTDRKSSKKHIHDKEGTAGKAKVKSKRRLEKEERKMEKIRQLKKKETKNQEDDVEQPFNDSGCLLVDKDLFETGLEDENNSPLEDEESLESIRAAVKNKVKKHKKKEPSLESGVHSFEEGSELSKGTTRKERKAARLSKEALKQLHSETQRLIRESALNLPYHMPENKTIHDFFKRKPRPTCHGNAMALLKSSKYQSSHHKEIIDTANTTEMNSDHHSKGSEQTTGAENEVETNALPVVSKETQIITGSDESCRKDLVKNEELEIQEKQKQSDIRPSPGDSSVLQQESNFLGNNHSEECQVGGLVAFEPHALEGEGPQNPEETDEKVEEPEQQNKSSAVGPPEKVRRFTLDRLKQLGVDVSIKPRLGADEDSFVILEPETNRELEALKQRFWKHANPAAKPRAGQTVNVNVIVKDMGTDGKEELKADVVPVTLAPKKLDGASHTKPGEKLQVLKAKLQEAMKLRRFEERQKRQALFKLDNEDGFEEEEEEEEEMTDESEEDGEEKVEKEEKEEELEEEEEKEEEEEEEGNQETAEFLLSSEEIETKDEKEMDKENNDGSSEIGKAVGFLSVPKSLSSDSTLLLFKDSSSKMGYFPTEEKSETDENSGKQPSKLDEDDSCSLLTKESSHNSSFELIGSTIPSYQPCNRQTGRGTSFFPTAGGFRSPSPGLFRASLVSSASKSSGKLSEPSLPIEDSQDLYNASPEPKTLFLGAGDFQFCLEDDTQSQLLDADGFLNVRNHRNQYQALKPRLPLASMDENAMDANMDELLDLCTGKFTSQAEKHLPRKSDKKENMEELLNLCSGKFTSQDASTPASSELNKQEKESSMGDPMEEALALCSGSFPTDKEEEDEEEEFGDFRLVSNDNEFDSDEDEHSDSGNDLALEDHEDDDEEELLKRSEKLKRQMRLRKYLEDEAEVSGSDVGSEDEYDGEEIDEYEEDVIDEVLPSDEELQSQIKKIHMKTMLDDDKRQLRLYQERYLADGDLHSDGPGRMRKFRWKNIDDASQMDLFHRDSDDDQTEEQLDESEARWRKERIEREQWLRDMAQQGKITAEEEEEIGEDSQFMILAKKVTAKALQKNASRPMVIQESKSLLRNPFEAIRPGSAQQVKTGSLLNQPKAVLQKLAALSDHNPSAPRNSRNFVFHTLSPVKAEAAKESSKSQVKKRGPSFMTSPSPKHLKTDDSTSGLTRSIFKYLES
UniProt P07942: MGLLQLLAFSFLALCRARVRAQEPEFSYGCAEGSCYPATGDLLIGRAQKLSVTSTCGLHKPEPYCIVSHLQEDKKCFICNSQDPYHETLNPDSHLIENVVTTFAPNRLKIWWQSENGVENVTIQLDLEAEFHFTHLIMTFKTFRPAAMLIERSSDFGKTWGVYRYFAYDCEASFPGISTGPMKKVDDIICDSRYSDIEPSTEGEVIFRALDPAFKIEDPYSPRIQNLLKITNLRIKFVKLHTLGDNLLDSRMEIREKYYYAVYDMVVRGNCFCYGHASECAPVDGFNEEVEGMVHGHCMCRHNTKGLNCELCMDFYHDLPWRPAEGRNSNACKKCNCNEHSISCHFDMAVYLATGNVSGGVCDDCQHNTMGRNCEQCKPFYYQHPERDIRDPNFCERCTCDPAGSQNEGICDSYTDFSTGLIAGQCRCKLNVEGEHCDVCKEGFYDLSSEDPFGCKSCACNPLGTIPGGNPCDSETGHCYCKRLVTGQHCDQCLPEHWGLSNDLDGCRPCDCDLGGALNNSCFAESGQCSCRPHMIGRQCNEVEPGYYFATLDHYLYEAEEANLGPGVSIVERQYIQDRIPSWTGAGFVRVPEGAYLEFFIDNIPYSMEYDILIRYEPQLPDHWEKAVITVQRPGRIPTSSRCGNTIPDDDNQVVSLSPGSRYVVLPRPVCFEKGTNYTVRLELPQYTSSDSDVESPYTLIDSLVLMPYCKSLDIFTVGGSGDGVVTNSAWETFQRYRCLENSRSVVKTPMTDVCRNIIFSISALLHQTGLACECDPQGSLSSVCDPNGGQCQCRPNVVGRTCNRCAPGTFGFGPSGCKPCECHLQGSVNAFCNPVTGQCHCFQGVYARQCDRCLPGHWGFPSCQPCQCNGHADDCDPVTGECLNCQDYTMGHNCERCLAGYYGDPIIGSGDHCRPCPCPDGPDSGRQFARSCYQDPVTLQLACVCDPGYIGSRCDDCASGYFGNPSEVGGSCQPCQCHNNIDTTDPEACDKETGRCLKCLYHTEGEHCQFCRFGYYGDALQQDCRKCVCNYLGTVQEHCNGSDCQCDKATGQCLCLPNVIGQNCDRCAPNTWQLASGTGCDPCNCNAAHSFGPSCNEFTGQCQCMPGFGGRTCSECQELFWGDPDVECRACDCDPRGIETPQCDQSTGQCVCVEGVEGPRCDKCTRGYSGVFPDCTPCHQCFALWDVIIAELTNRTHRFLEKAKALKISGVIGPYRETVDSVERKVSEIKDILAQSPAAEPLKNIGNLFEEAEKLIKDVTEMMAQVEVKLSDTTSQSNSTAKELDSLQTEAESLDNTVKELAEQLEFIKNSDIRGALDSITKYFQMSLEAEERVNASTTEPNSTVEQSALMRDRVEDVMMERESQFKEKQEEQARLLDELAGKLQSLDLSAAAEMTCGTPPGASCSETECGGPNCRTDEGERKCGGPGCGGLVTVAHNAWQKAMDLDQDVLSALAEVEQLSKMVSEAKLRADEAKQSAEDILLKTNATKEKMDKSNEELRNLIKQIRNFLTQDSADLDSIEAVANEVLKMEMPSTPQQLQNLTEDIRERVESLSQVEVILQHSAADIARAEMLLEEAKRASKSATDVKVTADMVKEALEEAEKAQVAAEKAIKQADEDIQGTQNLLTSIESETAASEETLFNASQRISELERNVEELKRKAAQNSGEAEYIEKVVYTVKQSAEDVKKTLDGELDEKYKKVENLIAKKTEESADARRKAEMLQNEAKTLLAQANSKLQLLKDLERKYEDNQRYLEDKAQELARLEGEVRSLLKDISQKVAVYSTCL
UniProt Q13449: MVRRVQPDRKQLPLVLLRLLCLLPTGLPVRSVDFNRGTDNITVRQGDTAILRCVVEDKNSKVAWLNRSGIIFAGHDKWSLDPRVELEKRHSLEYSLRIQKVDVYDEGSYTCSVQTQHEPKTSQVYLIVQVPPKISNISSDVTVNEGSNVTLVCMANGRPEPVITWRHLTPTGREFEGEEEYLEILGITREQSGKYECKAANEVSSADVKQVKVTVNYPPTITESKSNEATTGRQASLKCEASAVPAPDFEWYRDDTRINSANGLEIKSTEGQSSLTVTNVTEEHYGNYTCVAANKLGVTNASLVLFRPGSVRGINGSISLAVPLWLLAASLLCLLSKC

Compound: Nc1ncnc2c1ncn2[C@@H]1O[C@H](COP(=O)(O)OP(=O)(O)OP(=O)(O)O)[C@@H](O)[C@H]1O [adenosine triphosphate]
Test: NP40-soluble protein abundance relative to vehicle (solubility fold change) (ratio); higher = more soluble protein in presence of ATP
Summary of the method: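 Values are fold changes against the detergent-processed vehicle, based on vsn-normalised intensities. Jurkat crude lysate was treated at eight concentrations from 0.1 to 10 mM (10 min at room temperature, then 3 min at 37 °C), solubilised with 0.8% NP40 and benzonase, ultracentrifuged and analysed by TMT-labelled LC-MS/MS over three independent experiments.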

Target	NP40-soluble protein abundance (concentration: 1mM)	NP40-soluble protein abundance (concentration: 2mM)	NP40-soluble protein abundance (concentration: 4mM)	NP40-soluble protein abundance (concentration: 6mM)	NP40-soluble protein abundance (concentration: 8mM)	NP40-soluble protein abundance (concentration: 10mM)
F8VNV8 and related entries (UniProt P54284)	1.1 ± 0.08	1.07 ± 0.028	1.17 ± 0.13	1.06 ± 0.028	1.24 ± 0.12	1.1 ± 0.032
G3V1V0 and related entries (UniProt P60660)	0.948 ± 0.1	0.927 ± 0.11	0.914 ± 0.045	0.963 ± 0.16	0.892 ± 0.074	0.822 ± 0.079
E7EWP0 and related entries (UniProt O43674)	0.892 ± 0.029	0.891 ± 0.02	0.875 ± 0.049	0.858 ± 0.025	0.891 ± 0.015	0.853 ± 0.11
F8VS36 and related entries (UniProt Q92994)	0.982 ± 0.069	1.02 ± 0.097	0.982 ± 0.013	1.02 ± 0.058	0.958 ± 0.059	0.97 ± 0.025
F8VV56 and related entries (UniProt P08962)	0.886 ± 0.036	0.895 ± 0.013	0.928 ± 0.015	0.939 ± 0.029	0.93 ± 0.028	0.824 ± 0.078
F8W7U8 and related entries (UniProt P49959)	1.01 ± 0.038	1.02 ± 0.027	1.02 ± 0.035	1.03 ± 0.025	1.02 ± 0.021	1.02 ± 0.032
F6S8M0 and related entries (UniProt P15586)	0.948 ± 0.02	0.934 ± 0.039	0.914 ± 0.028	0.983 ± 0.045	0.909 ± 0.026	0.858 ± 0.07
F8WA39 and related entries (UniProt Q13613)	1.05 ± 0.019	1.02 ± 0.034	1.04 ± 0.034	0.998 ± 0.03	1.04 ± 0.018	1.01 ± 0.032
F8W8C2 and related entries (UniProt Q9HBM0)	0.989 ± 0.05	0.932 ± 0.11	0.925 ± 0.1	0.945 ± 0.098	0.92 ± 0.082	0.89 ± 0.06
F8W8Z9 and related entries (UniProt Q8N4H5)	0.865 ± 0.061	0.806 ± 0.066	0.831 ± 0.1	0.755 ± 0.086	0.778 ± 0.062	0.756 ± 0.081
G3V553 and related entries (UniProt Q9NWQ4)	1.05 ± 0.19	1.16 ± 0.12	1.23 ± 0.069	1.14 ± 0.075	1.23 ± 0.12	1.33 ± 0.23
E7ESG2 and related entries (UniProt Q9HAW4)	1.03 ± 0.051	1.03 ± 0.078	1.05 ± 0.072	1.03 ± 0.1	1 ± 0.065	1.05 ± 0.078
G3V1C3 and related entries (UniProt Q9BZZ5)	0.856 ± 0.032	0.9098 ± 0.0082	0.885 ± 0.024	0.954 ± 0.021	0.914 ± 0.023	0.959 ± 0.025
G3XAI2 and related entries (UniProt P07942)	0.94 ± 0.11	1.01 ± 0.087	0.996 ± 0.087	1.02 ± 0.15	1.02 ± 0.17	1.02 ± 0.079
F5H5G1 and related entries (UniProt Q13449)	0.976 ± 0.1	0.96 ± 0.051	0.981 ± 0.075	0.985 ± 0.14	0.911 ± 0.11	0.894 ± 0.019

As entered above:
NP40-soluble protein abundance (concentration: 6mM), F8WA39 and related entries (UniProt Q13613) is entered as 0.998 ± 0.03
NP40-soluble protein abundance (concentration: 8mM), F8VS36 and related entries (UniProt Q92994) is entered as 0.958 ± 0.059
